Measured values published in publication PMC7054324.
No constants are given. Whether binding was seen depends on the method and setting. Binding seen in cells or lysates may run through a third protein. Some results given as binding are weak or reduced against the parent protein; the word gives no strength.

Chains of the proteins cited; added tags and fusions are not shown. Residues count along the entry.
UniProt Q9NZQ7, residues 19-290: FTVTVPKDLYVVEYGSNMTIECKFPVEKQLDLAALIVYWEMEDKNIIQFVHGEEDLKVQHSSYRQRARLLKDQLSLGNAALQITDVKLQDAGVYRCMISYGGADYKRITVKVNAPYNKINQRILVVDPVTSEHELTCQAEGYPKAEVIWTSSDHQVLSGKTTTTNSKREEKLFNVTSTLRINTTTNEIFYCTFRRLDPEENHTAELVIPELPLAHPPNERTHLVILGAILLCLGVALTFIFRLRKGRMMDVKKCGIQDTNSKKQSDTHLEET
UniProt O60934: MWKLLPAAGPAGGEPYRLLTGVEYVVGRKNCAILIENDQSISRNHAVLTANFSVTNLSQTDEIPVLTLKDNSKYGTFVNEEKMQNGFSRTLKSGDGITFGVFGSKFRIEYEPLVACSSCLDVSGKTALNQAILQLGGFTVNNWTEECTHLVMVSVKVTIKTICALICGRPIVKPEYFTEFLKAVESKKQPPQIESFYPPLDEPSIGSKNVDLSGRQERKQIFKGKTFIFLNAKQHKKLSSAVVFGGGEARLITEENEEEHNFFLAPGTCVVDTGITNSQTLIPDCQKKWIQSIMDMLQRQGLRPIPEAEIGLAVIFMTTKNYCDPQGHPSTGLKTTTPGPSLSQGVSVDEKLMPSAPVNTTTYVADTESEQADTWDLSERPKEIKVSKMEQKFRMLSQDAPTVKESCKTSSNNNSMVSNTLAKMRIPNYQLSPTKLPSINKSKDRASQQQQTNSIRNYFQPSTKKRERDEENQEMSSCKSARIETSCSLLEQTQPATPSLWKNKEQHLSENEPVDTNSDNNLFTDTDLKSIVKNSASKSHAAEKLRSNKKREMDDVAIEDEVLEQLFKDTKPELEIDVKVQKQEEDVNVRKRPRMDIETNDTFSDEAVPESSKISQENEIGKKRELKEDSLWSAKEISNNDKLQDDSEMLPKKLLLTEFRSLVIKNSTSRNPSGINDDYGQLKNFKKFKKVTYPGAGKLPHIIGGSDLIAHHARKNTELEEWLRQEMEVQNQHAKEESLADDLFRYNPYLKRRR

Target: programmed cell death ligand 1 (PD-L1) (human (endogenous in JHU006 and JHU020)) (UniProt Q9NZQ7)
Assay: co-IP; lysates of JHU006 and JHU020 cells incubated with monoclonal mouse anti-human PD-L1 (1-2 ug per 100-500 ug total protein) for 3-4 h at 4 °C; captured on Protein A/G Sepharose beads, washed, eluted; western blot

NBS1 (from UniProt O60934 1-754)
binding: binds
